Assay results reported in paper PMC11253599.
These are yes or no findings as the source states them, for the method shown. In cells and extracts the contact can be indirect. These calls come from enrichment with a bait or labelling near it, and not all partners need be listed.

Biological target: SAMHD1-HA (human SAMHD1, wild type, from pVR1012-SAMHD1-HA) (human), Q9Y3Z3
Assay: affinity purification with mass spectrometry; HEK293T cells transfected with pSAMHD1-HA or empty vector were lysed together with PMA-treated U937 cells; IP with anti-HA affinity matrix; SDS-PAGE, trypsin digestion, Orbitrap MS
Conditions: remark: other sources report otherwise

B1: endogenous MX2 (myxovirus resistance protein 2) of PMA-differentiated U937 cells, P20592 1-715 (protein)
chain: MSKAHKPWPYRRRSQFSSRKYLKKEMNSFQQQPPPFGTVPPQMMFPPNWQGAEKDAAFLAKDFNFLTLNNQPPPGNRSQPRAMGPENNLYSQYEQKVRPCIDLIDSLRALGVEQDLALPAIAVIGDQSSGKSSVLEALSGVALPRGSGIVTRCPLVLKLKKQPCEAWAGRISYRNTELELQDPGQVEKEIHKAQNVMAGNGRGISHELISLEITSPEVPDLTIIDLPGITRVAVDNQPRDIGLQIKALIKKYIQRQQTINLVVVPCNVDIATTEALSMAHEVDPEGDRTIGILTKPDLMDRGTEKSVMNVVRNLTYPLKKGYMIVKCRGQQEITNRLSLAEATKKEITFFQTHPYFRVLLEEGSATVPRLAERLTTELIMHIQKSLPLLEGQIRESHQKATEELRRCGADIPSQEADKMFFLIEKIKMFNQDIEKLVEGEEVVRENETRLYNKIREDFKNWVGILATNTQKVKNIIHEEVEKYEKQYRGKELLGFVNYKTFEIIVHQYIQQLVEPALSMLQKAMEIIQQAFINVAKKHFGEFFNLNQTVQSTIEDIKVKHTAKAENMIQLQFRMEQMVFCQDQIYSVVLKKVREEIFNPLGTPSQNMKLNSHFPSNESSVSSFTEIGIHLNAYFLETSKRLANQIPFIIQYFMLRENGDSLQKAMMQILQEKNRYSWLLQEQSETATKRRILKERIYRLTQARHALCQFSSKEIH
binding: binds
